# Source: US20090029958A1, “PHENETHANOLAMINE DERIVATIVES AS BETA2 ADRENORECEPTOR AGONISTS” (priority 2006, published 2009)
# At least one compound was matched to its structure with a doubt left.
# Target: T1, Adrenergic β2 (Homo sapiens, UniProt P07550)
# T1 construct: endogenous in cells; host or cells: H292 cells
# Assay: Alternative Adrenergic β2 Mediated cAMP Production in H292 cells (60 minutes incubation with test compound)
# Assay type: cell-based
# Settings: fraction relative to the maximum activity determined for formoterol
# Description: H292 cells were grown in 225 cm2 flasks incubator at 37° C., 5% CO2 in RPMI medium containing, 10% (v/v) FBS (foetal bovine serum) and 2 mM L-glutamine.
# Adherent H292 cells were removed from tissue culture flasks by treatment with Accutase™ cell detachment solution for 15 minutes. Flasks were incubated for 15 minutes in a humidified incubator at 37° C., 5% CO2. Detached cells were re-suspended in RPMI media (containing 10% (v/v) FBS and 2 mM L-glutamine) at 0.05×10^6 cells per mL. 5000 cells in 100 μL were added to each well of a tissue-culture-treated 96-well plate and the cells incubated overnight in a humidified incubator at 37° C., 5% CO2. The culture media was removed and cells were washed twice with 100 μL assay buffer and replaced with 50 μL assay buffer (HBSS solution containing 10 mM HEPES pH7.4 and 5 mM glucose). […]
# The concentration of cAMP (cyclic adenosine monophosphate) in the cell lysate was determined using AlphaScreen™ methodology. […] The AlphaScreen™ signal was measured using an EnVision spectrophotometer (Perkin-Elmer Inc.) with the recommended manufacturer's settings. cAMP concentrations were determined by reference to a calibration curve determined in the same experiment using standard cAMP concentrations. […] Intrinsic Activity was expressed as a fraction relative to the maximum activity determined for formoterol in each experiment.
compound,measurement,value
"O=C(CCN1CCC(NC[C@H](O)c2ccc(O)c3[nH]c(=O)ccc23)CC1)NCc1cccc(Cl)c1Cl [Example 36, N-(2,3-Dichlorobenzyl)-3-(4-{[(2R)-2-hydroxy-2-(8-hydroxy-2-oxo-1,2-dihydroquinolin-5-yl)ethyl]amino}piperidin-1-yl)propanamide]",Intrinsic Activity,0.8
